Assay results

The results are deposited in PubChem (AID504749; NCATS, 2011).

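A panel of P. falciparum strains inside erythrocytes is exposed to compounds for three days, then a DNA-binding dye reports the amount of parasite DNA. Each compound was titrated across a series from about 0.000037 to 29 µM. The number is the fitted AC50, the concentration giving a half-maximal change in signal; a lower value means higher potency, whether the curve shows a decrease or an increase. Calls follow the curve class and fit quality: every row here is inconclusive, covering signal-raising curves and weak, poorly fitted, partial or highest-dose-only inhibition curves.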

Values are in nM. Every entry below has the call inconclusive. Only part of the assay is shown, chiefly results filed as inconclusive. A potency from a partial, single-point or poor curve is only a rough figure. The first word of each remark tells which way the curve ran; it can be opposite to the aim of the assay.

| compound | condition | Potency (nM) | curve |
|---|---|---|---|
| `O=C1CCc2cc(OCCCCc3nnnn3C3CCCCC3)ccc2N1` | ECU | 3548 | inhibitor, single point |
| `C=CCN1C[C@H](C)N([C@H](c2ccc(C(=O)N(CC)CC)cc2)c2cccc(OC)c2)C[C@H]1C` | AA1029 | 11220 | inhibitor, single point |
| `C=CCN1C[C@H](C)N([C@H](c2ccc(C(=O)N(CC)CC)cc2)c2cccc(OC)c2)C[C@H]1C` | CP250 | 11220 | inhibitor, partial curve |
| `C=CCN1C[C@H](C)N([C@H](c2ccc(C(=O)N(CC)CC)cc2)c2cccc(OC)c2)C[C@H]1C` | 3D7 | 19952 | inhibitor, single point |
| `C=CCN1C[C@H](C)N([C@H](c2ccc(C(=O)N(CC)CC)cc2)c2cccc(OC)c2)C[C@H]1C` | ECU | 11220 | inhibitor, partial curve |
| `C=CCN1C[C@H](C)N([C@H](c2ccc(C(=O)N(CC)CC)cc2)c2cccc(OC)c2)C[C@H]1C` | CP217 | 11220 | inhibitor, partial curve |
| `C=CCN1C[C@H](C)N([C@H](c2ccc(C(=O)N(CC)CC)cc2)c2cccc(OC)c2)C[C@H]1C` | PC26 | 7569 | inhibitor, partial curve, poor fit |
| `C=CCN1C[C@H](C)N([C@H](c2ccc(C(=O)N(CC)CC)cc2)c2cccc(OC)c2)C[C@H]1C` | CP297 | 0.5 | activator |
| `C=CCN1C[C@H](C)N([C@H](c2ccc(C(=O)N(CC)CC)cc2)c2cccc(OC)c2)C[C@H]1C` | AS120 | 17782 | inhibitor, single point |
| `C=CCN1C[C@H](C)N([C@H](c2ccc(C(=O)N(CC)CC)cc2)c2cccc(OC)c2)C[C@H]1C` | C2A | 8912 | inhibitor, single point |
| `C=CCN1C[C@H](C)N([C@H](c2ccc(C(=O)N(CC)CC)cc2)c2cccc(OC)c2)C[C@H]1C` | FAB9 | 12589 | inhibitor, single point |
| `C=CCN1C[C@H](C)N([C@H](c2ccc(C(=O)N(CC)CC)cc2)c2cccc(OC)c2)C[C@H]1C` | P94_40 | 17782 | inhibitor, single point |
| `C=CCN1C[C@H](C)N([C@H](c2ccc(C(=O)N(CC)CC)cc2)c2cccc(OC)c2)C[C@H]1C` | CP191 | 12589 | inhibitor, single point |
| `C=CCN1C[C@H](C)N([C@H](c2ccc(C(=O)N(CC)CC)cc2)c2cccc(OC)c2)C[C@H]1C` | PC15 | 12589 | inhibitor, single point |
| `C=CCN1C[C@H](C)N([C@H](c2ccc(C(=O)N(CC)CC)cc2)c2cccc(OC)c2)C[C@H]1C` | DIV14 | 9528 | inhibitor, partial curve |
| `C=CCN1C[C@H](C)N([C@H](c2ccc(C(=O)N(CC)CC)cc2)c2cccc(OC)c2)C[C@H]1C` | PAD | 11220 | inhibitor, single point |
| `C=CCN1C[C@H](C)N([C@H](c2ccc(C(=O)N(CC)CC)cc2)c2cccc(OC)c2)C[C@H]1C` | ATS189 | 15848 | inhibitor, single point |
| `C=CCN1C[C@H](C)N([C@H](c2ccc(C(=O)N(CC)CC)cc2)c2cccc(OC)c2)C[C@H]1C` | GB4 | 19011 | inhibitor, partial curve, poor fit |
| `C=CCN1C[C@H](C)N([C@H](c2ccc(C(=O)N(CC)CC)cc2)c2cccc(OC)c2)C[C@H]1C` | CP260 | 10000 | inhibitor, single point |
| `C=CCN1C[C@H](C)N([C@H](c2ccc(C(=O)N(CC)CC)cc2)c2cccc(OC)c2)C[C@H]1C` | CP286 | 11220 | inhibitor, single point |
| `C=CCN1C[C@H](C)N([C@H](c2ccc(C(=O)N(CC)CC)cc2)c2cccc(OC)c2)C[C@H]1C` | CP185 | 12589 | inhibitor, single point |
| `C=CCN1C[C@H](C)N([C@H](c2ccc(C(=O)N(CC)CC)cc2)c2cccc(OC)c2)C[C@H]1C` | CP265 | 11220 | inhibitor, partial curve |
| `C=CCN1C[C@H](C)N([C@H](c2ccc(C(=O)N(CC)CC)cc2)c2cccc(OC)c2)C[C@H]1C` | CP335 | 15101 | inhibitor, single point |
| `C=CCN1C[C@H](C)N([C@H](c2ccc(C(=O)N(CC)CC)cc2)c2cccc(OC)c2)C[C@H]1C` | CP256 | 10000 | inhibitor, single point |
| `C=CCN1C[C@H](C)N([C@H](c2ccc(C(=O)N(CC)CC)cc2)c2cccc(OC)c2)C[C@H]1C` | HB3 | 10000 | inhibitor, single point |
| `C=CCN1C[C@H](C)N([C@H](c2ccc(C(=O)N(CC)CC)cc2)c2cccc(OC)c2)C[C@H]1C` | N140 | 12589 | inhibitor, single point |
| `C=CCN1C[C@H](C)N([C@H](c2ccc(C(=O)N(CC)CC)cc2)c2cccc(OC)c2)C[C@H]1C` | DIV17 | 7569 | inhibitor, partial curve |
| `C=CCN1C[C@H](C)N([C@H](c2ccc(C(=O)N(CC)CC)cc2)c2cccc(OC)c2)C[C@H]1C` | CP247 | 7943 | inhibitor, single point |
| `C=CCN1C[C@H](C)N([C@H](c2ccc(C(=O)N(CC)CC)cc2)c2cccc(OC)c2)C[C@H]1C` | CP252 | 14125 | inhibitor, single point |
| `C=CCN1C[C@H](C)N([C@H](c2ccc(C(=O)N(CC)CC)cc2)c2cccc(OC)c2)C[C@H]1C` | P93_24 | 12589 | inhibitor, single point |
| `C=CCN1C[C@H](C)N([C@H](c2ccc(C(=O)N(CC)CC)cc2)c2cccc(OC)c2)C[C@H]1C` | ATS95 | 17782 | inhibitor, single point |
| `C=CCN1C[C@H](C)N([C@H](c2ccc(C(=O)N(CC)CC)cc2)c2cccc(OC)c2)C[C@H]1C` | CP262 | 19011 | inhibitor, single point |
| `C=CCN1C[C@H](C)N([C@H](c2ccc(C(=O)N(CC)CC)cc2)c2cccc(OC)c2)C[C@H]1C` | DFO2036 | 10000 | inhibitor, partial curve |
| `O=c1n(CCCN2CCN(c3cccc(Cl)c3)CC2)nc2ccccn12` | parasite line B | 10000 | inhibitor, single point |
| `O=c1n(CCCN2CCN(c3cccc(Cl)c3)CC2)nc2ccccn12` | CP262 | 9074 | activator, partial curve, poor fit |
| `O=c1n(CCCN2CCN(c3cccc(Cl)c3)CC2)nc2ccccn12` | CP215 | 6424 | inhibitor, single point |
| `O=c1n(CCCN2CCN(c3cccc(Cl)c3)CC2)nc2ccccn12` | ATS95 | 8912 | inhibitor, single point |
| `CC(C)NCC(O)COc1ccc(CCOCC2CC2)cc1` (stereo unspecified) | CP191 | 17782 | inhibitor, single point |
| `CC(C)NCC(O)COc1ccc(CCOCC2CC2)cc1` (stereo unspecified) | DIV17 | 11995 | inhibitor, single point |
| `CC(C)NCC(O)COc1ccc(CCOCC2CC2)cc1` (stereo unspecified) | P94_40 | 11220 | inhibitor, single point |
| `CC(C)NCC(O)COc1ccc(CCOCC2CC2)cc1` (stereo unspecified) | ATS189 | 17782 | inhibitor, single point |
| `CC(C)NCC(O)COc1ccc(CCOCC2CC2)cc1` (stereo unspecified) | TAB109 | 17782 | inhibitor, single point |
| `CC(C)NCC(O)COc1ccc(CCOCC2CC2)cc1` (stereo unspecified) | PAD | 8912 | inhibitor, single point |
| `CC(C)NCC(O)COc1ccc(CCOCC2CC2)cc1` (stereo unspecified) | TAB113 | 17782 | inhibitor, single point |

Some entries from above, unchanged:

compound	condition	Potency (nM)	curve
CC(C)NCC(O)COc1ccc(CCOCC2CC2)cc1 (stereo unspecified)	TAB109	17782	inhibitor, single point
C=CCN1C[C@H](C)N([C@H](c2ccc(C(=O)N(CC)CC)cc2)c2cccc(OC)c2)C[C@H]1C	CP250	11220	inhibitor, partial curve